Laboratory results from the supplement of paper PMC10849652.
The other results are listed elsewhere or left out.

Amino acid sequences for entries named in this document (tags omitted). A change or cut given only in a name is not applied to a line headed by its entry.
UniProt Q9NXA8: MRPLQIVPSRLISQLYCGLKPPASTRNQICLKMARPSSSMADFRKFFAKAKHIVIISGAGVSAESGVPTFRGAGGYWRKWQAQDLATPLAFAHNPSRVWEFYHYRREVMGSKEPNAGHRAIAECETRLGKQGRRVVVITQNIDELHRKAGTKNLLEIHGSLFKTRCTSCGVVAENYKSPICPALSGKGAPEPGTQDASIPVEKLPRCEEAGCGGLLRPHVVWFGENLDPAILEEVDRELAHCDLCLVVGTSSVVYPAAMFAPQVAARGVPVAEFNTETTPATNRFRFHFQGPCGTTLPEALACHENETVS
UniProt Q8IZQ5, whole entry, looked up: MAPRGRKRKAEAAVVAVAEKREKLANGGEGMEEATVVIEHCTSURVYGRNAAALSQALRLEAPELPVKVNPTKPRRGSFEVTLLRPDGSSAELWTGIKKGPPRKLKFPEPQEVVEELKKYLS
UniProt P34897: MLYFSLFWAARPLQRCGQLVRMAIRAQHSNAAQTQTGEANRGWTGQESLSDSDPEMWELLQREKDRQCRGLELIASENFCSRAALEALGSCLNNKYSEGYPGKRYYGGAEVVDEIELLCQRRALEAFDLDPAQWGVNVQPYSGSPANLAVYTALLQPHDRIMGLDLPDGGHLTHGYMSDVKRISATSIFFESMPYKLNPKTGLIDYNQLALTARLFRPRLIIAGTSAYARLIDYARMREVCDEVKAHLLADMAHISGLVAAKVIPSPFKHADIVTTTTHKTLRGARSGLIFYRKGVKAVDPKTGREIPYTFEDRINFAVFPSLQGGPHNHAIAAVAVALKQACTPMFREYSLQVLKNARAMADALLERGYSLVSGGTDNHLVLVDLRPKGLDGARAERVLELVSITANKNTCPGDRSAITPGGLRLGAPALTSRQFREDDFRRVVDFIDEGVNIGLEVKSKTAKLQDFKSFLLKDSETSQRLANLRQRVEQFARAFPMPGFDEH
UniProt Q9Y3B4: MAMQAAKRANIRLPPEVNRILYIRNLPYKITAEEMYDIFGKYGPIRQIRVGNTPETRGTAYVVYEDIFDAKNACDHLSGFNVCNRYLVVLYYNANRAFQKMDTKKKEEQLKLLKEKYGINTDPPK
UniProt A0MZ66, whole entry, looked up: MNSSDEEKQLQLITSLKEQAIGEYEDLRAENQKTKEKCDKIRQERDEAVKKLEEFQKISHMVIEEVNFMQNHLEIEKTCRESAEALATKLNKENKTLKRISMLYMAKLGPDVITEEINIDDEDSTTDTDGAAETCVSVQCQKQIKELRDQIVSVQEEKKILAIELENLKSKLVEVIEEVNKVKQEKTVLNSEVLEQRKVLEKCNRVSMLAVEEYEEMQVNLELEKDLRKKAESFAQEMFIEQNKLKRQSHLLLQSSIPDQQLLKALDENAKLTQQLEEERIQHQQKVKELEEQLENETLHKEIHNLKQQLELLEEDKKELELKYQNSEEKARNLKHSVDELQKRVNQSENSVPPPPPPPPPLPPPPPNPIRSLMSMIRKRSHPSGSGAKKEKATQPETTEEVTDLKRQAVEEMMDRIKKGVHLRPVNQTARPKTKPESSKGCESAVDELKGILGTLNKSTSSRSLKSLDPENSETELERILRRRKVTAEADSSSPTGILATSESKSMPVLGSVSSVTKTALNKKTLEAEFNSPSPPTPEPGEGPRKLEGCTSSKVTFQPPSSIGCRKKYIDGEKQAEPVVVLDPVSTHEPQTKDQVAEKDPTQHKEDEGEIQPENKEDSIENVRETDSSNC
UniProt Q8IX90, whole entry, looked up: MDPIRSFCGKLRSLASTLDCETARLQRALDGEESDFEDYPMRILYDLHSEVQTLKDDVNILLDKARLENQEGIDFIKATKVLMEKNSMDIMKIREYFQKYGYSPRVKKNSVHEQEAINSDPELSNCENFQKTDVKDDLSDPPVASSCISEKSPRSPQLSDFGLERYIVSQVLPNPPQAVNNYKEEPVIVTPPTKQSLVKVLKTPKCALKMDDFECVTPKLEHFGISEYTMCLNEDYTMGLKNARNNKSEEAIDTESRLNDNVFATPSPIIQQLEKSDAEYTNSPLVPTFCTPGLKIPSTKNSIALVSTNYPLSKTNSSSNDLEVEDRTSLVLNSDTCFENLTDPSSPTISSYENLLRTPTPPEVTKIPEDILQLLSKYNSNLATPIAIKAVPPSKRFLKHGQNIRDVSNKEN
UniProt O95470: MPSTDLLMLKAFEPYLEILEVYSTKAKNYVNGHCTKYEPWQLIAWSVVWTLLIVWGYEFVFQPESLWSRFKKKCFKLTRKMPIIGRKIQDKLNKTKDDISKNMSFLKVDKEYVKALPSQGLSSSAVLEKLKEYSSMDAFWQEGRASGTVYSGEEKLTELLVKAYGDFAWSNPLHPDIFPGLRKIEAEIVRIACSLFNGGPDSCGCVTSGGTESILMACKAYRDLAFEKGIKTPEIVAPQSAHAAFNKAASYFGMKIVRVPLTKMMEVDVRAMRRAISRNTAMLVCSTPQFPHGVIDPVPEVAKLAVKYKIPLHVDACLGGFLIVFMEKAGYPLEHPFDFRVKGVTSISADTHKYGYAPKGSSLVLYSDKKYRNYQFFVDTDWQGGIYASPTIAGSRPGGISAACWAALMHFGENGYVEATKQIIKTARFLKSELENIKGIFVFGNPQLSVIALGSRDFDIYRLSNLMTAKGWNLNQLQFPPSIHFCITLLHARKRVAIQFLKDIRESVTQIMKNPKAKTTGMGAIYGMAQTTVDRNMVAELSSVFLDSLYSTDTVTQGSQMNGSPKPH
UniProt P50452: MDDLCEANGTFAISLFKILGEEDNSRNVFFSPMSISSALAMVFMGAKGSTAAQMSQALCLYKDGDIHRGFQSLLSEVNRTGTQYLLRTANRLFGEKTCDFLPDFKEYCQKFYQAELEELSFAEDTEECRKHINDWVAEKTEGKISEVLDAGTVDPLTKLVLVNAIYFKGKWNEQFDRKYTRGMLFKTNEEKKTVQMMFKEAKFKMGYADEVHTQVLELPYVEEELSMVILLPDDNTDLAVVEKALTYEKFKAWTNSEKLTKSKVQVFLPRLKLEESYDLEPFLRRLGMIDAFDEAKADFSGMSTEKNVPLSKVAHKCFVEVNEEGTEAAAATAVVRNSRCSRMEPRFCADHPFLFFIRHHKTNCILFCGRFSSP
UniProt Q86TU7: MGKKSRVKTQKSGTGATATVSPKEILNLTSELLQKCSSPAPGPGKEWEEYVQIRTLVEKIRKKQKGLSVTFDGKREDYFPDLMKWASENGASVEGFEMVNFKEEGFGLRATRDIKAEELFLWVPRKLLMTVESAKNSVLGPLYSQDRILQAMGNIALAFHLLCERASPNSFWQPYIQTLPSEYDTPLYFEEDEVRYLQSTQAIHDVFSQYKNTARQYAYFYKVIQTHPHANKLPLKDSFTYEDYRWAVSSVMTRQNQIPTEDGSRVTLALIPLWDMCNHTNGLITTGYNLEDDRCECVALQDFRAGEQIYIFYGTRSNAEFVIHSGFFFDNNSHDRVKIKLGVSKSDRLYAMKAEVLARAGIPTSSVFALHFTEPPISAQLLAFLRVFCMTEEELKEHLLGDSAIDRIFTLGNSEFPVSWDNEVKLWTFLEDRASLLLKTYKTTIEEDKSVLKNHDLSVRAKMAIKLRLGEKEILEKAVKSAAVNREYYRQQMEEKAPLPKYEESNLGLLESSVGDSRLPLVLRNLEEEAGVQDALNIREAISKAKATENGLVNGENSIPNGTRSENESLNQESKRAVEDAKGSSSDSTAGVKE
UniProt Q99720, whole entry, looked up: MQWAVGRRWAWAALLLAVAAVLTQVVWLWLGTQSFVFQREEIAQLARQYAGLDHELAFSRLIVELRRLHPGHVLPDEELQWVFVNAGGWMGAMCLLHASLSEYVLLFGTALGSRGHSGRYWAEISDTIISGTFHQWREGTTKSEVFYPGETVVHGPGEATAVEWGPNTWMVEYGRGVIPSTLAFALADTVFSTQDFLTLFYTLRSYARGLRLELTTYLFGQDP
UniProt Q6P4A7: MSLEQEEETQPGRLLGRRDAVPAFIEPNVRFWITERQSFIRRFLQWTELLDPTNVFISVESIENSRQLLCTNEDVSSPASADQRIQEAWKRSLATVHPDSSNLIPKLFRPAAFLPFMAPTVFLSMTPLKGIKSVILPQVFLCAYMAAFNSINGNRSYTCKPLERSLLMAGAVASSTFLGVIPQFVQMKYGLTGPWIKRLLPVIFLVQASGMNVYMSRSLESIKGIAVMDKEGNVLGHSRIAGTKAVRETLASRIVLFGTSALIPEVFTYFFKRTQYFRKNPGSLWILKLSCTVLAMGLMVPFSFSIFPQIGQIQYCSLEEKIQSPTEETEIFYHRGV
UniProt Q8IXJ6: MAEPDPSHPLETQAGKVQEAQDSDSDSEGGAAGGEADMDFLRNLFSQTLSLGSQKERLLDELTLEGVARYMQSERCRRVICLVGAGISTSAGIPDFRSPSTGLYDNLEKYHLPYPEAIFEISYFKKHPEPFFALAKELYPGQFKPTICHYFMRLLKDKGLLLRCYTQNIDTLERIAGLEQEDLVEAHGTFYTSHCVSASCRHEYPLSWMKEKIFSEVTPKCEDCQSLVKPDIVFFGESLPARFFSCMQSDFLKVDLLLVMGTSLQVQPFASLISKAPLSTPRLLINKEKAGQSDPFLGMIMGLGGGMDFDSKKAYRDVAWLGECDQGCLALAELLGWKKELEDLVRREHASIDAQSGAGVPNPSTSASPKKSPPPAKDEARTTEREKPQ
UniProt Q9H9B4: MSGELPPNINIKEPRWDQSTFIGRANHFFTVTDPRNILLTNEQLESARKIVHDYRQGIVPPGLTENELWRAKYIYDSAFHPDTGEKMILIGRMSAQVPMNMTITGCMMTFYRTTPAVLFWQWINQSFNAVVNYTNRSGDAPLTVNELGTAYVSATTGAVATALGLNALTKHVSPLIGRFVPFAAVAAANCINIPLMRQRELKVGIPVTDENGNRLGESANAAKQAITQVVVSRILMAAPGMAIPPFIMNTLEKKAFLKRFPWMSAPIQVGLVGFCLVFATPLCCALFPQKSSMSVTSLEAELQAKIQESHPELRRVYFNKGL
UniProt Q5FBB7: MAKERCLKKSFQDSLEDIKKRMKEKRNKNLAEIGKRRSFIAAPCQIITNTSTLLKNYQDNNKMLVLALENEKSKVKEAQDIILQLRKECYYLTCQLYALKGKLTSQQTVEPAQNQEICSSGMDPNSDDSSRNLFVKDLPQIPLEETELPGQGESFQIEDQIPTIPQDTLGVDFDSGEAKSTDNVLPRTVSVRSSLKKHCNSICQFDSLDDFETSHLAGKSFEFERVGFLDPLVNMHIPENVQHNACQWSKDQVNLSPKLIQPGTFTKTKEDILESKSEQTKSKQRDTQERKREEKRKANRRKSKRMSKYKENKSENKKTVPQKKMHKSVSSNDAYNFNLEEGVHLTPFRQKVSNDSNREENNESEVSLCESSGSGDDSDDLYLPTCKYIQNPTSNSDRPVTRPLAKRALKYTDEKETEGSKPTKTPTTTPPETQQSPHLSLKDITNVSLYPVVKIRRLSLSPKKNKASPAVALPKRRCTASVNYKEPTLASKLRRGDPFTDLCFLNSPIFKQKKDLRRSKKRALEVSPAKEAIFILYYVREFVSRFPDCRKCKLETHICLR
UniProt Q9UGP8: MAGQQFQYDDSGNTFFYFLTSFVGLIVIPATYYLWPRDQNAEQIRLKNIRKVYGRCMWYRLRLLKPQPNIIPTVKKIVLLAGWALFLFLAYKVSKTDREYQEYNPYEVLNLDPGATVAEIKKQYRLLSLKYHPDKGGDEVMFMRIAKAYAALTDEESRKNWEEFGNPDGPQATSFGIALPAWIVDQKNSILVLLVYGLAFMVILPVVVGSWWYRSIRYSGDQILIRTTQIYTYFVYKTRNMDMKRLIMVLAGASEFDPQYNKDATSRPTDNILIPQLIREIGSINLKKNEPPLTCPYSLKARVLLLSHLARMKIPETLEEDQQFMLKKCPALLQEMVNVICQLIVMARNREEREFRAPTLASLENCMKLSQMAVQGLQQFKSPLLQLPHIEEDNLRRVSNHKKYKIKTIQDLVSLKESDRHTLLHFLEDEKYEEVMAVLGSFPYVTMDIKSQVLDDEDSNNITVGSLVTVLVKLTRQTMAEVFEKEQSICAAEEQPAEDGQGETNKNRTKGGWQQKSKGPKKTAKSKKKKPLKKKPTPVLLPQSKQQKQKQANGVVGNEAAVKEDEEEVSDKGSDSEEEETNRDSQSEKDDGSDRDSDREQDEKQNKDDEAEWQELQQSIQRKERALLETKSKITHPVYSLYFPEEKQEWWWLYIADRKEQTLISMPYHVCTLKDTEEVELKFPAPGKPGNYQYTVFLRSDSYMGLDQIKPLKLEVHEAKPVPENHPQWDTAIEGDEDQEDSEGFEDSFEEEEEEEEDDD
UniProt Q01105, whole entry, looked up: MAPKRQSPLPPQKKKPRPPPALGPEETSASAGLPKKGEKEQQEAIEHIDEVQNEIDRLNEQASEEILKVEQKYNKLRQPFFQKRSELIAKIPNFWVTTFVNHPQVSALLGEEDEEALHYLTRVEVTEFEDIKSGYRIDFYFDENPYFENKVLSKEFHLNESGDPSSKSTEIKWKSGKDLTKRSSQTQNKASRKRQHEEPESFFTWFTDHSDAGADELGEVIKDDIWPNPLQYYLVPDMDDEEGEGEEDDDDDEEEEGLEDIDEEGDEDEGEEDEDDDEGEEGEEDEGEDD

Assays:
Test in all cases: log2 fold change, soluble protein after heating vs DMSO (PISA); higher = thermal stabilisation; K562 cells, 10 uM, 30 min; active = over 0.2 and 3.5 SD of the protein, either way, in both replicates (recomputed)
[1] = compound: CC1=C(C=C(C=C1)NC(=O)C2=CC(=CC=C2)C(C)(C)C#N)NC3=CC4=C(C=C3)N=CN(C4=O)C
How it was run: (§1)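 K562 cells at 2×10^6 cells/mL were treated with 10 μM compound for 30 min. Aliquots were heated for 3 min across 48°C-58°C, pooled, and extracted in PBS with 0.5% NP-40 at 4°C; soluble protein was the supernatant after 21,000xg for 90 min. Soluble protein was quantified by TMTpro 16plex LC-MS/MS with channel sums equalised, and reported as log2 fold change in thermal stability against DMSO controls, with values from duplicates.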

[2] = compound: CC1=C(C=C(C=C1)NC(=O)C2=CC(=CC=C2)N(C)C)NC(=O)C3=CC=C(C=C3)O
How it was run: as §1

[3] = compound: CC1=CC=C(C=C1)SC2=C3C=C(SC3=CN=C2)C(=O)N
How it was run: as §1

[4] = compound: CC1=NC(=CC=C1)C2=C(N=C(N2)C(C)(C)C)C3=CC4=NC=CN=C4C=C3
How it was run: as §1

Nexturastat A = compound: CCCCN(Cc1ccc(C(=O)NO)cc1)C(=O)Nc1ccccc1 [Nexturastat A]
How it was run: as §1

vemurafenib = compound: CCCS(=O)(=O)Nc1ccc(F)c(C(=O)c2c[nH]c3ncc(-c4ccc(Cl)cc4)cc23)c1F [vemurafenib]
How it was run: as §1

[5] = compound: CCCS(=O)(=O)Nc1ccc(F)c(C(=O)c2c[nH]c3ncc(Cl)cc23)c1F
How it was run: as §1

[6] = compound: CCCc1cc(C)[nH]c(=O)c1CNC(=O)c1cc(-c2ccnc(N3CCN(C)CC3)c2)cc2c1cnn2C(C)C
How it was run: as §1

givinostat = compound: CCN(CC)Cc1ccc2cc(COC(=O)Nc3ccc(C(=O)NO)cc3)ccc2c1 [givinostat]
How it was run: as §1

barasertib = compound: CCN(CCCOc1ccc2c(Nc3cc(CC(=O)Nc4cccc(F)c4)[nH]n3)ncnc2c1)CCOP(=O)(O)O [barasertib]
How it was run: as §1

Target | log2 fold change [1] | log2 fold change [2] | log2 fold change [3] | log2 fold change [4] | log2 fold change (Nexturastat A) | log2 fold change (vemurafenib) | log2 fold change [5] | log2 fold change [6] | log2 fold change (givinostat) | log2 fold change (barasertib)
SLAIN2 (UniProt Q9P270) | inactive: -0.079 | inactive: 0.037 | inactive: -0.009 | inactive: 0.052 | inactive: 0.04 | inactive: -0.094 | inactive: -0.036 | inactive: -0.013 | inactive: 0.031 | inactive: -0.025
SIRT5 (UniProt Q9NXA8) | inactive: 0.053 | inactive: 0.118 | inactive: -0.003 | inactive: -0.134 | inactive: -0.015 | inactive: 0 | inactive: 0.028 | inactive: 0.038 | inactive: 0.014 | inactive: 0.119
SFSWAP isoform 2 (UniProt Q12872) | inactive: -0.003 | inactive: 0.04 | inactive: -0.008 | inactive: -0.008 | inactive: 0.055 | inactive: 0 | inactive: 0.055 | inactive: -0.007 | inactive: 0.08 | inactive: -0.19
SELENOH (UniProt Q8IZQ5) | inactive: 0.09 | inactive: -0.011 | inactive: 0.023 | inactive: -0.035 | inactive: 0.089 | inactive: 0.042 | inactive: 0.007 | inactive: 0.075 | inactive: 0.024 | inactive: -0.031
SHMT2 (UniProt P34897) | inactive: -0.013 | inactive: 0 | inactive: 0.006 | inactive: 0.005 | inactive: -0.059 | inactive: -0.013 | inactive: -0.009 | inactive: -0.033 | inactive: -0.028 | inactive: 0
SIDT2 isoform 2 (UniProt Q8NBJ9) | inactive: -0.021 | inactive: 0.019 | inactive: -0.025 | active: -0.367 | inactive: 0.042 | inactive: 0.019 | inactive: -0.033 | inactive: 0.017 | inactive: 0.038 | inactive: -0.148
SF3B6 (UniProt Q9Y3B4) | inactive: -0.011 | inactive: -0.001 | inactive: -0.029 | inactive: 0.019 | inactive: -0.001 | inactive: 0.02 | inactive: -0.007 | inactive: 0.049 | inactive: 0.046 | inactive: 0.018
SHTN1 isoform 3 (UniProt A0MZ66) | inactive: -0.054 | inactive: -0.02 | inactive: -0.005 | inactive: -0.051 | inactive: 0.048 | inactive: -0.043 | inactive: 0.028 | inactive: 0.03 | inactive: 0.074 | inactive: 0.058
SERPINI1 (UniProt Q99574) | inactive: 0.07 | inactive: -0.009 | inactive: 0.029 | inactive: 0.006 | inactive: -0.173 | inactive: 0.021 | inactive: -0.047 | inactive: 0.088 | inactive: -0.061 | inactive: 0.027
SEC61A1 (UniProt P61619) | inactive: -0.003 | inactive: 0.015 | inactive: 0.053 | inactive: -0.01 | inactive: 0.041 | inactive: -0.04 | inactive: 0.011 | inactive: -0.12 | inactive: 0.014 | inactive: -0.051
SKA3 (UniProt Q8IX90) | inactive: 0.021 | inactive: 0.057 | inactive: -0.072 | inactive: 0.001 | inactive: 0.262 | inactive: 0.02 | inactive: 0.041 | inactive: 0.02 | inactive: 0.039 | inactive: 0.051
SIL1 (UniProt Q9H173) | inactive: -0.039 | inactive: -0.041 | inactive: -0.062 | inactive: -0.015 | inactive: 0.034 | inactive: -0.009 | inactive: -0.085 | inactive: 0.019 | inactive: 0.003 | inactive: -0.028
SGPL1 (UniProt O95470) | inactive: -0.036 | inactive: -0.056 | inactive: 0.014 | inactive: -0.054 | inactive: 0.031 | inactive: 0.033 | inactive: -0.036 | inactive: 0.074 | inactive: -0.035 | inactive: 0.051
SERPINB8 (UniProt P50452) | inactive: -0.099 | inactive: 0.006 | inactive: -0.06 | inactive: -0.028 | inactive: 0.029 | inactive: -0.055 | inactive: -0.034 | inactive: 0.006 | inactive: -0.017 | inactive: 0.045
SFPQ (UniProt P23246) | inactive: -0.017 | inactive: -0.039 | inactive: -0.053 | inactive: -0.024 | inactive: 0.151 | inactive: 0.044 | inactive: 0.022 | inactive: 0.043 | inactive: 0.061 | inactive: -0.016
SETD3 (UniProt Q86TU7) | inactive: -0.008 | inactive: 0.029 | inactive: -0.01 | inactive: 0.046 | inactive: -0.024 | inactive: 0.035 | inactive: -0.01 | inactive: 0.034 | inactive: -0.037 | inactive: 0.026
SF3A1 (UniProt Q15459) | inactive: 0.033 | inactive: -0.041 | inactive: -0.004 | inactive: 0.026 | inactive: -0.011 | inactive: 0.028 | inactive: -0.001 | inactive: -0.011 | inactive: 0.015 | inactive: 0.022
SIGMAR1 (UniProt Q99720) | inactive: -0.035 | inactive: 0.034 | inactive: -0.047 | inactive: 0.074 | inactive: 0.04 | inactive: -0.044 | inactive: 0.038 | inactive: -0.051 | inactive: -0.002 | inactive: 0.024
SFXN4 (UniProt Q6P4A7) | inactive: 0.006 | inactive: 0 | inactive: 0.038 | inactive: 0.05 | inactive: -0.015 | inactive: 0.011 | inactive: 0 | inactive: 0.016 | inactive: 0.014 | inactive: -0.044
SIRT2 (UniProt Q8IXJ6) | inactive: 0.014 | inactive: -0.051 | inactive: -0.016 | inactive: 0.027 | inactive: 0.004 | inactive: 0.012 | inactive: -0.022 | inactive: -0.002 | inactive: 0.004 | inactive: 0.015
SENP6 (UniProt Q9GZR1) | inactive: -0.048 | inactive: -0.006 | inactive: 0.037 | inactive: -0.007 | inactive: 0.247 | inactive: -0.028 | inactive: -0.01 | inactive: 0.077 | inactive: 0.057 | inactive: -0.026
SEL1L3 (UniProt Q68CR1) | inactive: 0.042 | inactive: 0.013 | inactive: -0.042 | inactive: -0.059 | inactive: 0.117 | inactive: -0.072 | inactive: 0.017 | inactive: -0.014 | inactive: 0.069 | inactive: -0.111
SFXN1 (UniProt Q9H9B4) | inactive: 0.048 | inactive: -0.011 | inactive: 0.022 | inactive: 0.05 | inactive: -0.064 | inactive: 0.013 | inactive: 0.052 | inactive: -0.003 | inactive: 0.013 | inactive: -0.01
SGO1 (UniProt Q5FBB7) | inactive: -0.031 | inactive: -0.009 | inactive: -0.015 | inactive: -0.041 | inactive: 0.166 | inactive: 0.007 | inactive: -0.004 | inactive: -0.029 | inactive: 0.026 | inactive: 0.031
SEC63 (UniProt Q9UGP8) | inactive: -0.013 | inactive: 0.024 | inactive: 0.005 | inactive: 0.024 | inactive: -0.044 | inactive: 0.002 | inactive: 0.012 | inactive: -0.006 | inactive: 0.009 | inactive: -0.014
SET isoform 2 (UniProt Q01105) | inactive: 0.041 | inactive: 0.028 | inactive: 0.003 | inactive: 0.039 | inactive: -0.059 | inactive: 0.032 | inactive: -0.02 | inactive: -0.027 | inactive: -0.022 | inactive: 0.035

Limited to log2 fold change (vemurafenib), log2 fold change [3] and log2 fold change [2] (two entries from above):
Target	log2 fold change (vemurafenib)	log2 fold change [3]	log2 fold change [2]
SIDT2 isoform 2 (UniProt Q8NBJ9)	inactive: 0.019	inactive: -0.025	inactive: 0.019
SF3B6 (UniProt Q9Y3B4)	inactive: 0.02	inactive: -0.029	inactive: -0.001
